Experimental data from doi:10.1101/2024.05.08.593233.
These are yes or no findings as the source states them, for the method shown. Binding seen in cells or lysates may run through a third protein. Some entries that bind do so weakly or less than the wild type. Where a sequence is shown, tags or fusion partners need not be part of it. One block for each binder: values may come before it.

Tests used:
Assay in all cases: co-IP
[1] = molecular target: T1, 3×FLAG-Rubicon (1-625, 761–972) (human) (UniProt Q92622)
T1 sequence: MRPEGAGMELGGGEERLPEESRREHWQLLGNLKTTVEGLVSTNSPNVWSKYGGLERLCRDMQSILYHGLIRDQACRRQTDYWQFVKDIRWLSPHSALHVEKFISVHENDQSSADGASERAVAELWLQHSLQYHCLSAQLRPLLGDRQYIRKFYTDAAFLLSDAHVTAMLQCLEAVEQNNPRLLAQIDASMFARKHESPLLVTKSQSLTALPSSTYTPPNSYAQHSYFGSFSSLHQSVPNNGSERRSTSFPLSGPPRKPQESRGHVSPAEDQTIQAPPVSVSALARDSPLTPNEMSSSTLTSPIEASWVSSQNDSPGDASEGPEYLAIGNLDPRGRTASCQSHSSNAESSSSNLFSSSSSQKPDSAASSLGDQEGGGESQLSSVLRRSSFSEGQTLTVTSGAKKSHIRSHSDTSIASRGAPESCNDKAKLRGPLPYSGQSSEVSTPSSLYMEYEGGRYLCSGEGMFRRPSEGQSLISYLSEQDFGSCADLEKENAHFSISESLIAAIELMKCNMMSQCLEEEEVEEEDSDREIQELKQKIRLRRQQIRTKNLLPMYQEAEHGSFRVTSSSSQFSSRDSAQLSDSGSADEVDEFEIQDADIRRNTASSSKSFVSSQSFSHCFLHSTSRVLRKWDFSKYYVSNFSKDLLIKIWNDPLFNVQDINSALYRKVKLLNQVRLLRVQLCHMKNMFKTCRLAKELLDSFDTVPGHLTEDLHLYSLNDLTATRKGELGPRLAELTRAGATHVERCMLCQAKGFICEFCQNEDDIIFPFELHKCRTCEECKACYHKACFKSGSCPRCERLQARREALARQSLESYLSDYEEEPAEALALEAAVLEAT

[2] = molecular target: T2, Rubicon (509–972) (human) (UniProt Q92622)
T2 sequence: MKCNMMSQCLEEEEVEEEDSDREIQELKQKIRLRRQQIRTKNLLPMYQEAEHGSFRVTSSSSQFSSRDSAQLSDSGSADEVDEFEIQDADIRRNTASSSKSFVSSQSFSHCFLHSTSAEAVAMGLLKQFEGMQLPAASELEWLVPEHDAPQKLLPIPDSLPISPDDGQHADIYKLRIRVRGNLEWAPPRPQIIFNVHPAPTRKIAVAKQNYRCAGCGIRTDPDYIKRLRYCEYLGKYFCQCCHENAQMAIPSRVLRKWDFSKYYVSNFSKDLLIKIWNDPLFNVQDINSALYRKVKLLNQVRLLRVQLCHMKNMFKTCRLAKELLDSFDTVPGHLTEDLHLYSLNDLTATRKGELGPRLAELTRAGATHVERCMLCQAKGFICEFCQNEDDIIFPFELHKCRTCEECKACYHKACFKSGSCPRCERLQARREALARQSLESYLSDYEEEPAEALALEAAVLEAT

[3] = molecular target: T3, 3×FLAG-Rubicon (1–508) (human) (UniProt Q92622)
T3 sequence: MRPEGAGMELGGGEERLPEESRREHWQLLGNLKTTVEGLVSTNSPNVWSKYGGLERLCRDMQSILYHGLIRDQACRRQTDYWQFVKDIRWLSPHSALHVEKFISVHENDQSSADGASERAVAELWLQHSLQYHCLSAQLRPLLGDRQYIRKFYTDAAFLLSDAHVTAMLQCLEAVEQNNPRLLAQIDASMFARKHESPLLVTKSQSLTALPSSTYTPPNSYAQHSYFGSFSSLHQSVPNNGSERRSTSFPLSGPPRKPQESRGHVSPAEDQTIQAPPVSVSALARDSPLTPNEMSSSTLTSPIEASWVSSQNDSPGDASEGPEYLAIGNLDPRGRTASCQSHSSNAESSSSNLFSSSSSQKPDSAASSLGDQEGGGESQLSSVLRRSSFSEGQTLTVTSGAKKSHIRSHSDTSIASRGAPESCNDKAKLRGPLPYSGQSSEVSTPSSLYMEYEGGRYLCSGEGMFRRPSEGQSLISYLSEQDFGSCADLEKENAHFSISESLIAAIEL

binding [1]: no binding
binding [2]: binds
binding [3]: no binding
B1: HA-WIPI2d (protein, UniProt Q9Y4P8-2 1-425)
chain: MNLASQSGEAGAGQLLFANFNQDNTSLAVGSKSGYKFFSLSSVDKLEQIYECTDTEDVCIVERLFSSSLVAIVSLKAPRKLKVCHFKKGTEICNYSYSNTILAVKLNRQRLIVCLEESLYIHNIRDMKVLHTIRETPPNPAGLCALSINNDNCYLAYPGSATIGEVQVFDTINLRAANMIPAHDSPLAALAFDASGTKLATASEKGTVIRVFSIPEGQKLFEFRRGVKRCVSICSLAFSMDGMFLSASSNTETVHIFKLETVKEKPPEEPTTWTGYFGKVLMASTSYLPSQVTEMFNQGRAFATVRLPFCGHKNICSLATIQKIPRLLVGAADGYLYMYNLDPQEGGECALMKQHRLDGSLETTNEILDSASHDCPLVTQTYGAAAGKAYTDDLGAVGGACLEDEASALRLDEDSEHPPMILRTD

binding [1]: no binding
binding [2]: binds
binding [3]: no binding
B2: endogenous WIPI2 (HEK293T) (protein, UniProt Q9Y4P8 1-454)
chain: MNLASQSGEAGAGQLLFANFNQDNTEVKGASRAAGLGRRAVVWSLAVGSKSGYKFFSLSSVDKLEQIYECTDTEDVCIVERLFSSSLVAIVSLKAPRKLKVCHFKKGTEICNYSYSNTILAVKLNRQRLIVCLEESLYIHNIRDMKVLHTIRETPPNPAGLCALSINNDNCYLAYPGSATIGEVQVFDTINLRAANMIPAHDSPLAALAFDASGTKLATASEKGTVIRVFSIPEGQKLFEFRRGVKRCVSICSLAFSMDGMFLSASSNTETVHIFKLETVKEKPPEEPTTWTGYFGKVLMASTSYLPSQVTEMFNQGRAFATVRLPFCGHKNICSLATIQKIPRLLVGAADGYLYMYNLDPQEGGECALMKQHRLDGSLETTNEILDSASHDCPLVTQTYGAAAGKGTYVPSSPTRLAYTDDLGAVGGACLEDEASALRLDEDSEHPPMILRTD
